These are yes or no findings as the source states them, for the method shown. Some results given as binding are weak or reduced against the parent protein; the word gives no strength.

Sequences of proteins named here, by UniProt entry; tags and fusion partners are left off. Residues count along the entry.
UniProt Q70M91, residues 25-354: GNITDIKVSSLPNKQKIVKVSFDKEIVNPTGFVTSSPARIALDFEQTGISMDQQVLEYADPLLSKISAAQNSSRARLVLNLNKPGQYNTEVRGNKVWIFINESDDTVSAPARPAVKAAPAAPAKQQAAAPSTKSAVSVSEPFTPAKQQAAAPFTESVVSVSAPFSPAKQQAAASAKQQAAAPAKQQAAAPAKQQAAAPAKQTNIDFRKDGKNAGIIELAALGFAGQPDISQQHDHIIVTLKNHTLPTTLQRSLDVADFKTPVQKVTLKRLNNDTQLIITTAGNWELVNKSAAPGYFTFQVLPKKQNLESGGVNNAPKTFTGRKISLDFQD
UniProt Q9K0B1, residues 18-267: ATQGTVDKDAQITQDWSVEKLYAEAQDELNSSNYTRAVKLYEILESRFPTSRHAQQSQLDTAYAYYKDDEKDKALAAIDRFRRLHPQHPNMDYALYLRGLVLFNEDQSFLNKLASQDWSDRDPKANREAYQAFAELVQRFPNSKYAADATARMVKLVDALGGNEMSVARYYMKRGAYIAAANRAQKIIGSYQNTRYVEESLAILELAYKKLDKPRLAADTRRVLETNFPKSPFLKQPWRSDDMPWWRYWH

In paper PMC3140584, “Structure–function relationships of the competence lipoprotein ComL and SSB in meningococcal transformation” one finds binding data, which are given here for one substance.

For this assay, the target named is PilQ_(25–354) (Neisseria meningitidis) (UniProt Q70M91). Kind of assay: far-Western, overlay or dot blot; 1 µg PilQ_(25–354) separated by SDS-PAGE, blotted on nitrocellulose, renatured overnight at 4 °C (0.25 % gelatin, 0.5 % BSA, 0.2 % Triton X-100, 10 mM Tris/HCl, 5 mM β-mercaptoethanol, 100 mM NaCl, pH 7.5); overlay for 3 h with 1 µg ComL_(18–267) in 10 ml renaturation buffer; bound ComL detected with rabbit antiserum against ComL; both purified.

As to “ComL_(18–267) (from UniProt Q9K0B1 18-267) (domain or fragment)”, the binding result is “binds”.
